Counter-ions that a name gives are not always drawn. The list shows a part of the results. The calls rarely recur for the same compound in another form.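 Kinases were expressed as nanoluciferase fusions in K562 cells and luminescence was read every 4 h between 2 and 18 h as percent of control, DMSO set to 100% and a positive control to 0%. A time point counts as decreased when the signal drops significantly (2 sigma). The hit call is the authors' own, does not follow from the count of time points alone, and its rule is not shown.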
Tests used:
Test in all cases: number of time points (of 5) at which kinase-Nluc abundance scored as decreased, DMSO-normalised (count); higher = more persistent destabilization
Conditions in all cases: K562; 2-18 h
ALK = ALK (UniProt Q9UM73)
ARAF = ARAF (UniProt P10398)
AURKA = AURKA (UniProt O14965)
AURKB = AURKB (UniProt Q96GD4)
AURKC = AURKC (UniProt Q9UQB9)
BLK = BLK (UniProt P51451)
BMX = BMX (UniProt P51813)
BRAF = BRAF (UniProt P15056)
BRAF_V600E = system: BRAF_V600E
BTK = BTK (UniProt Q06187)
CAMK2A = CAMK2A (UniProt Q9UQM7)
CAMK2G = CAMK2G (UniProt Q13555)
CDK10 = CDK10 (UniProt Q15131)
CDK2 = CDK2 (UniProt P24941)
CDK3 = CDK3 (UniProt Q00526)
CDK5 = CDK5 (UniProt Q00535)
CDK6 = CDK6 (UniProt Q00534)
CHEK2 = CHEK2 (UniProt O96017)
CSF1R = CSF1R (UniProt P07333)
CSK = CSK (UniProt P41240)

Sequences of proteins named here, by UniProt entry; tags and fusion partners are left off. A change or cut given only in a name is not applied to a line headed by its entry.
UniProt Q9UM73: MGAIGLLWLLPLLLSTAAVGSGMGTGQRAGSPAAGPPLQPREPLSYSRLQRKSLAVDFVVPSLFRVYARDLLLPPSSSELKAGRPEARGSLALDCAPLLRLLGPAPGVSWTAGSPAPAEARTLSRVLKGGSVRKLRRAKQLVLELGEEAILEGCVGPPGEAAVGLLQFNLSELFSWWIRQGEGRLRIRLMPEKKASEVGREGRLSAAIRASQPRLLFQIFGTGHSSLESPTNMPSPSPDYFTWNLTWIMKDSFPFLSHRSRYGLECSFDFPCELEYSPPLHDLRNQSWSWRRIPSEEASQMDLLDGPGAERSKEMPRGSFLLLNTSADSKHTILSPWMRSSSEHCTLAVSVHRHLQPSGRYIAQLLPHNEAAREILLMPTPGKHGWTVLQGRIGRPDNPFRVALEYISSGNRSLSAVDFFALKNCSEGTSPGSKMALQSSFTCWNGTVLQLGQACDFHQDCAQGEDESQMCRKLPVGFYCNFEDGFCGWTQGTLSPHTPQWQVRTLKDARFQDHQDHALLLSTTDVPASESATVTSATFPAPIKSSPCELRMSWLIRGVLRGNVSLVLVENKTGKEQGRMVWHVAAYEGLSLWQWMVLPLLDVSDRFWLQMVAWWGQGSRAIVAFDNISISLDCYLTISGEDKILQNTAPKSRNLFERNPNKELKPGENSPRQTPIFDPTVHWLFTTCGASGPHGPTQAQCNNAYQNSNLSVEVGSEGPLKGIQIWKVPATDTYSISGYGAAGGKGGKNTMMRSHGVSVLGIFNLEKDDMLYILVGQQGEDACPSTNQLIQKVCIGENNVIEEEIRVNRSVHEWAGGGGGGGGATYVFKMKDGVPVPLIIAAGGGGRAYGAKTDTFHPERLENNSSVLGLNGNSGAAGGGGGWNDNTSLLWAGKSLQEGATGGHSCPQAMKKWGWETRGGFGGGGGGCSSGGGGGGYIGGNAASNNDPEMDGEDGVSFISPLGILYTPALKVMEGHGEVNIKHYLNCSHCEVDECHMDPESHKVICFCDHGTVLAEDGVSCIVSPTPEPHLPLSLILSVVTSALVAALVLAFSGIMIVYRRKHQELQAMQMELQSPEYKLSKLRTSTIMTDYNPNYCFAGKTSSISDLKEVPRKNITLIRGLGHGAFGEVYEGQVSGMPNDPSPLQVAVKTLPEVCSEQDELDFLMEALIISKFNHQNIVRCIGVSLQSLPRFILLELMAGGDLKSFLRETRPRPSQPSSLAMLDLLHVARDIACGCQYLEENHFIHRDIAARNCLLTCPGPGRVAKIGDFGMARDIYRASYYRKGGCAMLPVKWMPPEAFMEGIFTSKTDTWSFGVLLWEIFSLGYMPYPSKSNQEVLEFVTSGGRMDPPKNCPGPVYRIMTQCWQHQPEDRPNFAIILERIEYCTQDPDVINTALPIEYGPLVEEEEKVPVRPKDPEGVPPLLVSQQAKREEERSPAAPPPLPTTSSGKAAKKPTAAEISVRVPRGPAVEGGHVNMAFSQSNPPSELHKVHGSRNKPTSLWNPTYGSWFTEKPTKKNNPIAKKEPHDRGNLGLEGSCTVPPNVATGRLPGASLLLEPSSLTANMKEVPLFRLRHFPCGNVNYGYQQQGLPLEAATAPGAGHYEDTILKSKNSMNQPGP
UniProt P10398: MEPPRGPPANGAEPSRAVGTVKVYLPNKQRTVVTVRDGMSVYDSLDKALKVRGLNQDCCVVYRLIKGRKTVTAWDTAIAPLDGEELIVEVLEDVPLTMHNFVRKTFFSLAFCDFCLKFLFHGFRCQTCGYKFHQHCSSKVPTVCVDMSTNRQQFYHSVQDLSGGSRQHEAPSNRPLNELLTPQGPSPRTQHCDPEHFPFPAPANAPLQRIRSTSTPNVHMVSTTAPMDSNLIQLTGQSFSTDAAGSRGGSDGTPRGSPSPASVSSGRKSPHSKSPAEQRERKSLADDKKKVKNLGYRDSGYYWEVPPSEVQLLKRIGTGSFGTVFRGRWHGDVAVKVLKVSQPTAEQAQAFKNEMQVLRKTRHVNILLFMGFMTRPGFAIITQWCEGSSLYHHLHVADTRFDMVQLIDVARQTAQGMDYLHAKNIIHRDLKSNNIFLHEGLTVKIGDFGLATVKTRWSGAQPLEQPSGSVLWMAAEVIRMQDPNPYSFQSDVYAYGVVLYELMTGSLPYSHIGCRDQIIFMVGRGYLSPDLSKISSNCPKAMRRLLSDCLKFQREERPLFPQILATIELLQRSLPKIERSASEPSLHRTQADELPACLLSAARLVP
UniProt O14965: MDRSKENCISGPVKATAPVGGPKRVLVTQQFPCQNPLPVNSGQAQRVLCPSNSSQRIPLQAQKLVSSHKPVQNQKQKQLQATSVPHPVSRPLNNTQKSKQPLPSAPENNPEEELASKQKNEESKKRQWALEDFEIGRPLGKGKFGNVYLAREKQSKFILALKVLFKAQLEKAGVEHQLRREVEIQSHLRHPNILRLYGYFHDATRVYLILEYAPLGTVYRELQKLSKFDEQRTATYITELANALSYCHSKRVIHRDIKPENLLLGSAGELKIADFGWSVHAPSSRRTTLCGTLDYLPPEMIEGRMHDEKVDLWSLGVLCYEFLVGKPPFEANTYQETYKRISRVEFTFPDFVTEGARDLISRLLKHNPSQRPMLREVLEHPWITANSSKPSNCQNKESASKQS
UniProt Q96GD4, whole entry: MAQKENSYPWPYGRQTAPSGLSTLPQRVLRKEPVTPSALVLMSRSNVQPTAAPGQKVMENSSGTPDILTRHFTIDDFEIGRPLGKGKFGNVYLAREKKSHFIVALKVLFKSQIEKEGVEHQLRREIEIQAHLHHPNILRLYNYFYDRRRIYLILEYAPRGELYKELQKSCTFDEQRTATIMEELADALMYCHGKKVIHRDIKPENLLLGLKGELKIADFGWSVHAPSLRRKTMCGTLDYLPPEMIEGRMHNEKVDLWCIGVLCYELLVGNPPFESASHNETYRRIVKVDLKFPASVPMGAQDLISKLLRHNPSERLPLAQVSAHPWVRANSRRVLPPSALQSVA
UniProt Q9UQB9: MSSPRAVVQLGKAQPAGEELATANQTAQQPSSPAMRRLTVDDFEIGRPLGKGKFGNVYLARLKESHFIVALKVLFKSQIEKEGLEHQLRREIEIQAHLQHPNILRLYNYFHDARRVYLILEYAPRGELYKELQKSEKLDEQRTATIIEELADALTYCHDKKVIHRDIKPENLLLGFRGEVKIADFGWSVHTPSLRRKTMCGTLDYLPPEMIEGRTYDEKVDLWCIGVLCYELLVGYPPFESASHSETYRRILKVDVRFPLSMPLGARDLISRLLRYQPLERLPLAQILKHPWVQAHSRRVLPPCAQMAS
UniProt P51451: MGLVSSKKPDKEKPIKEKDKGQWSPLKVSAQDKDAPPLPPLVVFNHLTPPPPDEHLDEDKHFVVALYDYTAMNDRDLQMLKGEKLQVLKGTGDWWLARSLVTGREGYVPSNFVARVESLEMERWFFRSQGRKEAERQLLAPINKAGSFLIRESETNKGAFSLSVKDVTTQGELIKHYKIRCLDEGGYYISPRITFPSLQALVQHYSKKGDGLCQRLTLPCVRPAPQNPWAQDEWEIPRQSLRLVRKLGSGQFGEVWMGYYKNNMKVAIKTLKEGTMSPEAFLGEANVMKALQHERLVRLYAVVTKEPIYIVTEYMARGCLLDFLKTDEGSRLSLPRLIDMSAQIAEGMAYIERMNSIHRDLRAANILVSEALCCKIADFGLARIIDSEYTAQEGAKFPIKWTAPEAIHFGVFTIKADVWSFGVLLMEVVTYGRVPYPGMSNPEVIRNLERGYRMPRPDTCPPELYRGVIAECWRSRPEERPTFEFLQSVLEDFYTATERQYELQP
UniProt Q13555: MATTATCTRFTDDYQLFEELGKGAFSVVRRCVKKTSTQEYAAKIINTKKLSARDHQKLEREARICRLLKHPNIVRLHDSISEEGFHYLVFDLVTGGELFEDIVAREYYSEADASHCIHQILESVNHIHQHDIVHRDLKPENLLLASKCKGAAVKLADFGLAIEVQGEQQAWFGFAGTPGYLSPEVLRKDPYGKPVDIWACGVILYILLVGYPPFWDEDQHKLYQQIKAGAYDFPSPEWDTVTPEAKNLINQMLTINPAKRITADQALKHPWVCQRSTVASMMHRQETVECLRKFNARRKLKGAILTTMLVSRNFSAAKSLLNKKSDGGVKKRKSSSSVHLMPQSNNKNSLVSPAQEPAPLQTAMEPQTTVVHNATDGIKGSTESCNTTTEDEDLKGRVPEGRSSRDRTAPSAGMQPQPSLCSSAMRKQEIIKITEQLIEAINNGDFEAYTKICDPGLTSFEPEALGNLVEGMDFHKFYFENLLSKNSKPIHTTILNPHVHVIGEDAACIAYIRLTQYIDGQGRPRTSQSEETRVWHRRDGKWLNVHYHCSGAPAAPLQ
UniProt Q15131: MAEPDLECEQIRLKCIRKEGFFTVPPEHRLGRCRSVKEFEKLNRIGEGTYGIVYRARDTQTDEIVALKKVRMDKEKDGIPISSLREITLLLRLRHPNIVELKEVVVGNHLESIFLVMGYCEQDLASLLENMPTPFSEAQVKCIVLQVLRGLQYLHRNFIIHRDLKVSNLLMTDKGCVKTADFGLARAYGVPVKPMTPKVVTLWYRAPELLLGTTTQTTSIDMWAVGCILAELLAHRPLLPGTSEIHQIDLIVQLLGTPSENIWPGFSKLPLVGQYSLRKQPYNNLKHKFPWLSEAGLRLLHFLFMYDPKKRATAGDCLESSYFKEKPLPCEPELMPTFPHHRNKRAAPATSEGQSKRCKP
UniProt Q00526: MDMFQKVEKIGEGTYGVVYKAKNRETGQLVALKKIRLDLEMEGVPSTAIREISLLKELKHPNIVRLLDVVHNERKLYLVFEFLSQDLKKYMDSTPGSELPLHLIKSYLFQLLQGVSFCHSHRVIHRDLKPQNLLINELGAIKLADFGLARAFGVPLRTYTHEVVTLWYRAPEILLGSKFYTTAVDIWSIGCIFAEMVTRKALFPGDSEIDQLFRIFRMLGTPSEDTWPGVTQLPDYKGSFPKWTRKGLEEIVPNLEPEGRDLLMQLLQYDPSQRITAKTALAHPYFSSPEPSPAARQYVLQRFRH
UniProt Q00535, whole entry, looked up: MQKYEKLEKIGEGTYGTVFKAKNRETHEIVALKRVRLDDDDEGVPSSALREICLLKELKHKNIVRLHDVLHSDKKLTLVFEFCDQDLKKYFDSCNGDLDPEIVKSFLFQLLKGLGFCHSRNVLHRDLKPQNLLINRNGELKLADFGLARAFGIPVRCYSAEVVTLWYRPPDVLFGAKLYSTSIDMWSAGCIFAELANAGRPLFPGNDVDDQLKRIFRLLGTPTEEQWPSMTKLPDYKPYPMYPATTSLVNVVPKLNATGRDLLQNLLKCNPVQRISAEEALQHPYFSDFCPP
UniProt O96017, whole entry: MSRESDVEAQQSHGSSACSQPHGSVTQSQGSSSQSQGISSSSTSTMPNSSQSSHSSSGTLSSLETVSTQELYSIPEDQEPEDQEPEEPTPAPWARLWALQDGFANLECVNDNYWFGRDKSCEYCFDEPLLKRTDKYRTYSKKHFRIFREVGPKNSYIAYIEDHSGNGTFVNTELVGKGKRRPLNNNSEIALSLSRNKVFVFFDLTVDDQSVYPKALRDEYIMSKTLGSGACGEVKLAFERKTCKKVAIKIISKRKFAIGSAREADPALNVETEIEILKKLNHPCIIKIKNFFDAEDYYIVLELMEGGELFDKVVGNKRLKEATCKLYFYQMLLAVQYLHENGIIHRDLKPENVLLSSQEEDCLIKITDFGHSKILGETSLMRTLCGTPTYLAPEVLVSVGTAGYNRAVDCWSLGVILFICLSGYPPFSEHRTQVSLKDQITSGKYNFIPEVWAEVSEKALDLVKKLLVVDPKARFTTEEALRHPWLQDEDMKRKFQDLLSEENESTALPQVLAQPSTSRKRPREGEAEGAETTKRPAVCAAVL
UniProt P41240: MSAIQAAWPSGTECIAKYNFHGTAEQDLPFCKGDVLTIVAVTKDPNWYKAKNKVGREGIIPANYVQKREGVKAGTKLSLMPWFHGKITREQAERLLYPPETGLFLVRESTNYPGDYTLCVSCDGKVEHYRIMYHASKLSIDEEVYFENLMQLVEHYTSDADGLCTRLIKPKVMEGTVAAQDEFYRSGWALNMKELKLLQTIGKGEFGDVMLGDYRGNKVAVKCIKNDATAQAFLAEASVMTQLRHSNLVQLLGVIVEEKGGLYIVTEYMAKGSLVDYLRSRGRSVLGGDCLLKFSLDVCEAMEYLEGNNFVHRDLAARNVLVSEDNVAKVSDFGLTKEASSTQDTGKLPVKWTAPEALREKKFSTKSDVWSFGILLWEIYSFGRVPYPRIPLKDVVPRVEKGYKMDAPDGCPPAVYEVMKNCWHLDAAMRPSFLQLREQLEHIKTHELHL

Row | SMILES | number of time points (ALK) | number of time points (ARAF) | number of time points (AURKA) | number of time points (AURKB) | number of time points (AURKC) | number of time points (BLK) | number of time points (BMX) | number of time points (BRAF) | number of time points (BRAF_V600E) | number of time points (BTK) | number of time points (CAMK2A) | number of time points (CAMK2G) | number of time points (CDK10) | number of time points (CDK2) | number of time points (CDK3) | number of time points (CDK5) | number of time points (CDK6) | number of time points (CHEK2) | number of time points (CSF1R) | number of time points (CSK)
1 | Nc1ncnc2c1c(-c1ccc(Oc3ccccc3)cc1)nn2C1CCCNC1 (racemic) (2.5 µM) | 0 | 0 | 0 | 0 | 0 | 0 | 0 | 0 | 0 | 0 | 0 | 0 | 0 | 0 | 0 | 0 | 0 | 0 | 0 | 0
2 | COc1cc(F)c(F)c(Nc2ccc(I)cc2F)c1NS(=O)(=O)C1(C[C@H](O)CO)CC1 [Refametinib] (10 µM) | 0 | 0 | 1 | 0 | 0 | 1 | 1 | 0 | 3 | 0 | 0 | 0 | 0 | 0 | 0 | 0 | 0 | 0 | 0 | 0
3 | Cc1ccc(-c2c(C(=O)CF)n(CCCO)c3ncnc(N)c23)cc1 (10 µM) | 0 | 0 | 0 | 0 | 0 | 0 | 0 | 0 | 0 | 0 | 0 | 0 | 0 | 0 | 0 | 0 | 0 | 0 | 0 | 0
4 | COc1cc(S(C)(=O)=O)ccc1Nc1nc2ccc(-c3ccc(NC(=O)[C@H](C)c4ccc(F)cc4)cc3)cn2n1 [Empesertib] (10 µM) | 0 | 0 | 0 | 0 | 0 | 0 | 0 | 0 | 0 | 0 | 0 | 0 | 0 | 0 | 0 | 0 | 0 | 0 | 0 | 0
5 | Nc1ncc(-c2cccc(N3CCNCC3)c2)cc1C(=O)Nc1ccncc1 [PKC-iota inhibitor 1] (10 µM) | 0 | 0 | 0 | 0 | 0 | 0 | 0 | 0 | 0 | 0 | 0 | 0 | 0 | 0 | 0 | 0 | 0 | 0 | 0 | 0
6 | COc1cc(N2CCC(N3CCN(C)CC3)CC2)ccc1Nc1ncc(Cl)c(Nc2ccccc2P(C)(C)=O)n1 [Brigatinib] (2 µM) | 0 | 0 | 0 | 0 | 0 | 0 | 0 | 0 | 3 | 0 | 0 | 0 | 0 | 0 | 0 | 0 | 0 | 0 | 0 | 0
7 | C[C@@H](c1ccc2nccn2c1)n1nnc2ncc(-c3cnn(C)c3)nc21 [Savolitinib] (10 µM) | 0 | 0 | 0 | 0 | 0 | 0 | 0 | 0 | 0 | 0 | 0 | 0 | 0 | 0 | 0 | 0 | 0 | 0 | 0 | 0
8 | CC(C)CN(CC(=O)N1CCN(CC(OCc2ccc3ccccc3c2)c2ccc(Cl)cc2Cl)CC1)CC(C)C (stereo not given) [LYN-1604 (dihydrochloride)] (2.5 µM) | 0 | 0 | 0 | 0 | 0 | 0 | 0 | 0 | 0 | 0 | 0 | 0 | 0 | 0 | 0 | 0 | 0 | 0 | 0 | 0
9 | CCn1c(=O)c(-c2ccc(-c3cncc(C)n3)cc2Cl)cc2cnc(NCCC3CCN(C)CC3)nc21 (10 µM) | 0 | 0 | 0 | 0 | 0 | 0 | 0 | 0 | 0 | 0 | 0 | 0 | 0 | 0 | 0 | 0 | 0 | 0 | 0 | 0
10 | CCc1cc(O)c(F)cc1-c1ccc2c(-c3nc4c([nH]3)CN(C3CCN(C)CC3)CC4)n[nH]c2c1 [JAK-IN-5 (hydrochloride)] (2 µM) | 0 | 0 | 3 | 0 | 0 | 0 | 1 | 1 | 0 | 0 | 0 | 0 | 0 | 0 | 0 | 0 | 0 | 1 | 0 | 0
11 | C[C@@H]1C(=O)O[C@H](C)[C@H]1C[C@@H](O)[C@](C)(O)[C@H]1CC[C@@]2(O)C3=CC(=O)[C@@H]4C[C@@H](O)[C@@H](O)C[C@]4(C)[C@H]3CC[C@]12C [Cyasterone] (10 µM) | 0 | 0 | 0 | 0 | 0 | 0 | 0 | 0 | 0 | 0 | 0 | 0 | 0 | 0 | 0 | 0 | 0 | 0 | 0 | 0
12 | Cn1nccc1Nc1nccc(-c2cc3c(s2)C(C)(C)N(CCN2CCOCC2)C3=O)n1 (10 µM) | 0 | 0 | 0 | 0 | 0 | 0 | 0 | 0 | 0 | 0 | 0 | 0 | 0 | 0 | 0 | 0 | 0 | 0 | 0 | 0

Whole records from above. Values in the order: number of time points (ALK)	number of time points (ARAF)	number of time points (AURKA)	number of time points (AURKB)	number of time points (AURKC)	number of time points (BLK)	number of time points (BMX)	number of time points (BRAF)	number of time points (BRAF_V600E)	number of time points (BTK)	number of time points (CAMK2A)	number of time points (CAMK2G)	number of time points (CDK10)	number of time points (CDK2)	number of time points (CDK3)	number of time points (CDK5)	number of time points (CDK6)	number of time points (CHEK2)	number of time points (CSF1R)	number of time points (CSK)
CCn1c(=O)c(-c2ccc(-c3cncc(C)n3)cc2Cl)cc2cnc(NCCC3CCN(C)CC3)nc21 (10 µM) in the list: 0	0	0	0	0	0	0	0	0	0	0	0	0	0	0	0	0	0	0	0
COc1cc(F)c(F)c(Nc2ccc(I)cc2F)c1NS(=O)(=O)C1(C[C@H](O)CO)CC1 [Refametinib] (10 µM) in the list: 0	0	1	0	0	1	1	0	3	0	0	0	0	0	0	0	0	0	0	0

Source: the supplement of paper PMC12823440, “Inhibitors supercharge kinase turnover through native proteolytic circuits” (Nature, 2025)
